PubChem BioAssay AID1259308, NCATS | 2017

Assay: 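Genes whose loss raises luciferase production in HEK293 cells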 (primary screen)
Cells: human HEK293 embryonic kidney cells stably expressing firefly luciferase (HEK-CMV-Luc2-Hygro)
Reagent: single siRNA against human genes, 0.8 pmol siRNA per well
Duration: 72 h
Detection: 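Reporter luminescence and viable-cell signal on separate replicate plates, given as percent of non-targeting control and median/MAD z-scores, plus per-cell luciferase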
Scale: total luciferase, z-score and total luciferase, % of control: higher = more reporter protein produced; luciferase per cell, z-score: higher = more reporter output per viable cell; viable cells, % of control: higher = more viable cells
Rule for the call: 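An siRNA counts as active if its total luciferase robust z-score exceeds 3; genes with two or more such siRNAs out of three were retested with fresh siRNAs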
Calls: active = raised luciferase; inactive = no rise
This is one part, drawn at random, of about 59,000 deposited reagents. Of all reagents, about 1,510 (2.6%) are marked active. 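Calls use total luciferase alone and ignore viability, so some active siRNAs may act by altering cell number.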 A number with no mark means an inactive call. The numbers tell different reagents against one gene apart. No sequences are given here.

no.	target gene	reagent	total luciferase, z-score	total luciferase, % of control	luciferase per cell, z-score	viable cells, % of control
1	IL12B (interleukin 12B)	1	-0.296	76	-0.576	98.8
2	IL12B (interleukin 12B)	2	0.0654	83.2	-0.493	106
3	IL12B (interleukin 12B)	3	1.02	102	-0.264	122
4	SNRPB2 (small nuclear ribonucleoprotein polypeptide B2)	1	2.32	128	1.56	94.8
5	SNRPB2 (small nuclear ribonucleoprotein polypeptide B2)	2	0.857	98.9	0.829	88.9
6	SNRPB2 (small nuclear ribonucleoprotein polypeptide B2)	3	0.31	88	0.652	82.9
7	FANCE (FA complementation group E)	1	0.837	98.5	0.872	87.5
8	FANCE (FA complementation group E)	2	-0.311	75.7	-0.000896	84.6
9	FANCE (FA complementation group E)	3	0.127	84.4	0.911	74.2
10	KCTD9 (potassium channel tetramerization domain containing 9)	1	-0.332	75.3	-0.985	109
11	KCTD9 (potassium channel tetramerization domain containing 9)	2	-1.3	56	-0.863	78.5
12	KCTD9 (potassium channel tetramerization domain containing 9)	3	-0.414	73.7	-0.789	101
13	HNRNPA2B1 (heterogeneous nuclear ribonucleoprotein A2/B1)	1	0.863	99.1	0.777	90.2
14	HNRNPA2B1 (heterogeneous nuclear ribonucleoprotein A2/B1)	2	0.655	94.9	1.11	79.2
15	HNRNPA2B1 (heterogeneous nuclear ribonucleoprotein A2/B1)	3	0.124	84.3	0.495	82.7
16	ANKRD50 (ankyrin repeat domain 50)	1	-0.0867	80.2	0.000905	89.6
17	ANKRD50 (ankyrin repeat domain 50)	2	-1.91	43.9	-2.4	92.4
18	ANKRD50 (ankyrin repeat domain 50)	3	1.13	104	1.19	85.3
19	RBM5 (RNA binding motif protein 5)	1	-0.0495	80.9	-0.274	97.2
20	RBM5 (RNA binding motif protein 5)	2	3.66 (active)	155	3.03	77.8
21	RBM5 (RNA binding motif protein 5)	3	-0.506	71.8	-0.749	97.8
22	HGH1 (HGH1 cochaperone)	1	0.541	92.7	1	79.5
23	HGH1 (HGH1 cochaperone)	2	0.968	101	1.34	79.4
24	HGH1 (HGH1 cochaperone)	3	2.52	132	3.07	65.8
25	INTS12 (integrator complex subunit 12)	1	1.74	116	1.07	98.1
26	INTS12 (integrator complex subunit 12)	2	-1.97	42.7	-1.9	78.6
27	INTS12 (integrator complex subunit 12)	3	1.55	113	0.918	98.9
28	APOBEC3A (apolipoprotein B mRNA editing enzyme catalytic subunit 3A)	1	-1.3	56	-1.03	81.9
29	APOBEC3A (apolipoprotein B mRNA editing enzyme catalytic subunit 3A)	2	-0.824	65.5	-0.93	93.5
30	APOBEC3A (apolipoprotein B mRNA editing enzyme catalytic subunit 3A)	3	0.609	94	0.918	82.5
31	SPATA13 (spermatogenesis associated 13)	1	-0.261	76.7	1.44	58.7
32	SPATA13 (spermatogenesis associated 13)	2	-0.953	62.9	-0.763	86
33	SPATA13 (spermatogenesis associated 13)	3	3.74 (active)	156	2.68	86.3
34	SELENOP (selenoprotein P)	1	-0.17	78.5	0.166	84
35	SELENOP (selenoprotein P)	2	-0.0719	80.5	-0.423	100
36	SELENOP (selenoprotein P)	3	1.47	111	0.709	103
37	ELOVL7 (ELOVL fatty acid elongase 7)	1	1.12	104	0.916	91.4
38	ELOVL7 (ELOVL fatty acid elongase 7)	2	1.28	107	0.603	102
39	ELOVL7 (ELOVL fatty acid elongase 7)	3	-0.322	75.5	-0.235	89.7
40	C9orf72 (C9orf72-SMCR8 complex subunit)	1	-0.754	66.9	-0.708	90.1
41	C9orf72 (C9orf72-SMCR8 complex subunit)	2	-1.15	58.9	-1.21	90.5
42	C9orf72 (C9orf72-SMCR8 complex subunit)	3	-0.164	78.6	0.597	75.1
43	C6orf89 (chromosome 6 open reading frame 89)	1	-1.2	58.1	-1.21	89.2
44	C6orf89 (chromosome 6 open reading frame 89)	2	-1.31	55.8	1.31	44.1
45	C6orf89 (chromosome 6 open reading frame 89)	3	1.48	111	1.26	89.3
46	LINC02226 (long independently transcribed non-coding RNA 2226)	1	1.26	107	1.53	79.8
47	LINC02226 (long independently transcribed non-coding RNA 2226)	2	-1.56	50.8	-1.34	80.8
48	LINC02226 (long independently transcribed non-coding RNA 2226)	3	-0.47	72.5	-1.05	107
49	SLC22A3	1	-0.168	78.5	-0.664	105
50	SLC22A3	2	1.05	103	0.278	107
51	SLC22A3	3	-0.278	76.4	-0.79	105
52	ETS2 (ETS proto-oncogene 2, transcription factor)	1	-1.18	58.3	-1.47	95.9
53	ETS2 (ETS proto-oncogene 2, transcription factor)	2	-0.461	72.7	-0.791	100
54	ETS2 (ETS proto-oncogene 2, transcription factor)	3	0.842	98.6	1.11	82.4
55	MARF1 (meiosis regulator and mRNA stability factor 1)	1	-0.665	68.7	-0.611	90.1
56	MARF1 (meiosis regulator and mRNA stability factor 1)	2	-0.214	77.6	-0.516	99.4
57	MARF1 (meiosis regulator and mRNA stability factor 1)	3	1.14	104	0.69	97.4

A few values from above.
IL12B (interleukin 12B) #2, total luciferase, z-score → 0.0654
Entry for RBM5 (RNA binding motif protein 5) #1 under “total luciferase, % of control”: 80.9
Under “total luciferase, z-score”, SPATA13 (spermatogenesis associated 13) #3 shows 3.74 (active)
Value for INTS12 (integrator complex subunit 12) #2 in “luciferase per cell, z-score”: -1.9
SNRPB2 (small nuclear ribonucleoprotein polypeptide B2) #3, total luciferase, z-score = 0.31
LINC02226 (long independently transcribed non-coding RNA 2226) #2, viable cells, % of control → 80.8
